Measured data: PubChem BioAssay AID743121 (NCATS, 2013)

- Purpose: 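Genes whose silencing strengthens cell killing by camptothecin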 (primary screen)
- Cells: MDA-MB-231 cells, a human breast cancer line
- Knock-down reagent: single siRNA against human genes, 20 nM siRNA (0.8 pmol per well)
- Duration: 120 h (drug added 48 h after transfection, read 72 h later)
- Conditions: camptothecin 20 nM (about EC30) for 72 h; vehicle 0.1% DMSO in parallel plates
- Measurement: 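Cell viability by ATP luminescence (CellTiter-Glo) as % of non-targeting siRNA wells, and the log2 ratio of viability without drug over viability with camptothecin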
- Scale: log2 vehicle/camptothecin viability: higher = stronger sensitisation to camptothecin; viability with camptothecin: higher = more viable cells
- Rule for the call: 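Active genes have an RSA gene-level p-value below 0.001, computed from the ratios of their separate siRNAs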
Here is an unselected part of about 26,000 reagents. Over the whole deposit, 167 (0.63%) are marked active. 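Calls are per gene from RSA p-values that are not deposited; an individual active-marked siRNA can sensitise only weakly.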 Entries without a mark were called inactive. The numbers tell different reagents against one gene apart. Not all columns of the deposit are shown.

Target gene,siRNA no.,log2 vehicle/camptothecin viability,viability with camptothecin (% of control)
CARM1 (coactivator associated arginine methyltransferase 1),1,0.204,56
CARM1 (coactivator associated arginine methyltransferase 1),2,-0.127,87.5
CARM1 (coactivator associated arginine methyltransferase 1),3,0.101,116
CARM1 (coactivator associated arginine methyltransferase 1),4,0.872,30.9
ATP2A3,1,0.185,85.2
ATP2A3,2,0.0196,85.8
ATP2A3,3,-0.32,91.7
ATP2A3,4,-0.0848,97
PAEP (progestagen associated endometrial protein),1,-0.364,79
PAEP (progestagen associated endometrial protein),2,-0.302,35.2
PAEP (progestagen associated endometrial protein),3,-0.0823,77
PAEP (progestagen associated endometrial protein),4,0.453,40.5
TRMT2B (tRNA methyltransferase 2B),1,0.113,60.4
TRMT2B (tRNA methyltransferase 2B),2,0.176,88.7
TRMT2B (tRNA methyltransferase 2B),3,-0.199,102
TRMT2B (tRNA methyltransferase 2B),4,0.551,71.5
STK10 (serine/threonine kinase 10),1,-0.0694,78.8
STK10 (serine/threonine kinase 10),2,-0.115,39.3
STK10 (serine/threonine kinase 10),3,-0.0941,43.1
STK10 (serine/threonine kinase 10),4,-0.178,52.9
MALRD1 (MAM and LDL receptor class A domain containing 1),1,-0.325,112
MALRD1 (MAM and LDL receptor class A domain containing 1),2,-0.259,68
MALRD1 (MAM and LDL receptor class A domain containing 1),3,-0.0833,108
KMT5C (lysine methyltransferase 5C),1,-0.101,103
KMT5C (lysine methyltransferase 5C),2,-0.693,65.8
KMT5C (lysine methyltransferase 5C),3,0.242,26.5
KMT5C (lysine methyltransferase 5C),4,0.0415,7.33
GPR85 (G protein-coupled receptor 85),1,-0.294,60.8
GPR85 (G protein-coupled receptor 85),2,-0.187,113
GPR85 (G protein-coupled receptor 85),3,-0.179,42.9
GPR85 (G protein-coupled receptor 85),4,0.597,72.7
SCN9A (sodium voltage-gated channel alpha subunit 9),1,-0.623,118
SCN9A (sodium voltage-gated channel alpha subunit 9),2,0.0263,100
SCN9A (sodium voltage-gated channel alpha subunit 9),3,0.0107,66.2
SCN9A (sodium voltage-gated channel alpha subunit 9),4,-0.0847,89.3
PLCB4 (phospholipase C beta 4),1,-0.0436,89.3
PLCB4 (phospholipase C beta 4),2,-0.128,101
PLCB4 (phospholipase C beta 4),3,0.0198,89.3
MARCKS (myristoylated alanine rich protein kinase C substrate),1,0.483,37.3
MARCKS (myristoylated alanine rich protein kinase C substrate),2,0.25,68.2
MARCKS (myristoylated alanine rich protein kinase C substrate),3,-0.359,85.1
MARCKS (myristoylated alanine rich protein kinase C substrate),4,0.223,95.8
ADGRL2 (adhesion G protein-coupled receptor L2),1,-0.0203,98.6
ADGRL2 (adhesion G protein-coupled receptor L2),2,-0.179,111
ADGRL2 (adhesion G protein-coupled receptor L2),3,-0.202,99.4
ADGRL2 (adhesion G protein-coupled receptor L2),4,-0.0164,60.8
PSKH2 (protein serine kinase H2),1,0.0573,87.5
PSKH2 (protein serine kinase H2),2,-0.157,85.4
PSKH2 (protein serine kinase H2),3,0.387,32.5
PSKH2 (protein serine kinase H2),4,-0.167,75.9
STX12 (syntaxin 12),1,0.258,42.2
STX12 (syntaxin 12),2,0.391,68
STX12 (syntaxin 12),3,-0.16,35.2
STX12 (syntaxin 12),4,-0.422,74.8
TXK (TXK tyrosine kinase),1,-0.166,107
TXK (TXK tyrosine kinase),2,0.0811,91.6
TXK (TXK tyrosine kinase),3,-0.346,94.6
TXK (TXK tyrosine kinase),4,-0.609,29.7
BRCA2 (BRCA2 DNA repair associated),1,0.0149,82.9
BRCA2 (BRCA2 DNA repair associated),2,0.737,45.9
BRCA2 (BRCA2 DNA repair associated),3,-0.173,66
BRCA2 (BRCA2 DNA repair associated),4,-0.156,38.2
KCNJ9 (potassium inwardly rectifying channel subfamily J member 9),1,-0.17,94.1
KCNJ9 (potassium inwardly rectifying channel subfamily J member 9),2,0.217,35.8
KCNJ9 (potassium inwardly rectifying channel subfamily J member 9),3,0.25,27.8
CHRNA1 (cholinergic receptor nicotinic alpha 1 subunit),1,-0.128,75.6
CHRNA1 (cholinergic receptor nicotinic alpha 1 subunit),2,-0.534,81.1
CHRNA1 (cholinergic receptor nicotinic alpha 1 subunit),3,0.192,68.5
CHRNA1 (cholinergic receptor nicotinic alpha 1 subunit),4,-0.312,57.5
